Source: the M2OR odorant receptor database
This is a selection; strong and weak results do not stand in their true shares. The calls were merged from several studies; some rest on single wells. The list shows a part of the results.

Protein sequences, listed by entry. Tags and fused reporters are not part of them. Lines headed by an entry give the natural chain unless they say otherwise; changes in a name come on top.
UniProt B2RN74: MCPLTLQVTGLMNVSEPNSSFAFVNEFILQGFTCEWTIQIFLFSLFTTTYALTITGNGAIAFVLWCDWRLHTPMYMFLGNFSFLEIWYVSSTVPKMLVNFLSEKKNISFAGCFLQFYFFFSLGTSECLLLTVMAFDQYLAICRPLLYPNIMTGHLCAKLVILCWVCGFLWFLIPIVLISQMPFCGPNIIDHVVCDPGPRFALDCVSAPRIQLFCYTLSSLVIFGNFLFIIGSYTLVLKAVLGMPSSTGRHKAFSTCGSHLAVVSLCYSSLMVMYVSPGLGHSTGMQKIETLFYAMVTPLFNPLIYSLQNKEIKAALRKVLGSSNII

Assays:
Conditions in all cases: stereoisomer not certain
OR10K1 (Homo sapiens) = target: T1, OR10K1 (Homo sapiens) (UniProt Q8NGX5)
T1 sequence (whole entry): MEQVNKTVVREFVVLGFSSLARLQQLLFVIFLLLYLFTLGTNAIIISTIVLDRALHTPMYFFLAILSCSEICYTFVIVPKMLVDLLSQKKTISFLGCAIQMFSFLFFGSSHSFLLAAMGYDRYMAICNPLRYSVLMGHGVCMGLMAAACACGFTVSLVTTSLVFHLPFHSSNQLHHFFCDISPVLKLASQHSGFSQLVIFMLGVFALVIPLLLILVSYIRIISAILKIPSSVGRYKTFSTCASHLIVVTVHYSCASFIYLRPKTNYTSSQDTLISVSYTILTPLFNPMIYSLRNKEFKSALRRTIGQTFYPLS
Summary of the method: (§1)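 Each receptor–molecule pair is labelled responsive or non-responsive (inactive) according to whether the original authors judged the measured signal statistically different from baseline. The data were taken from the main text and supplementary material of published papers and checked for typos and inconsistencies. Assay methods differed by source, with transient luciferase assays in mammalian cell lines being common.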

OR10K2 (Homo sapiens) = target: T2, OR10K2 (Homo sapiens) (UniProt Q6IF99)
T2 sequence (whole entry): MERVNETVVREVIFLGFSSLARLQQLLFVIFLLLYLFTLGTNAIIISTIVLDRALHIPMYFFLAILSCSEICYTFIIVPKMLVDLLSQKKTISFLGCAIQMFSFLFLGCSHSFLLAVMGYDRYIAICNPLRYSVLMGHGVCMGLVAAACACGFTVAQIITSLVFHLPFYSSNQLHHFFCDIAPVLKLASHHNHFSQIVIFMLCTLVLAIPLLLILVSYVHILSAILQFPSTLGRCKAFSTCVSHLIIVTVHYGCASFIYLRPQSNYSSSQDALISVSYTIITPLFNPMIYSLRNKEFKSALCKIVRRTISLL
Summary of the method: as §1

OR10T2 (Homo sapiens) = target: T3, OR10T2 (Homo sapiens) (UniProt Q8NGX3)
T3 sequence (whole entry): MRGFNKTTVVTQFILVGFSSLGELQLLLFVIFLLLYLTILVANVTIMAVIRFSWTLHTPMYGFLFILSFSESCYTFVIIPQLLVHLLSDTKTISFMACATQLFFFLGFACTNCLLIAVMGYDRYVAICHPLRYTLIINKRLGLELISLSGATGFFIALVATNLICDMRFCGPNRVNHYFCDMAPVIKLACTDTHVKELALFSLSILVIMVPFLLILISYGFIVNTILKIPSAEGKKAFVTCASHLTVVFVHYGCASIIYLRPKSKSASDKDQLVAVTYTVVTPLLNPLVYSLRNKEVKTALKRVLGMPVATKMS
Summary of the method: as §1

OR10X1 (Homo sapiens) = target: T4, OR10X1 (Homo sapiens) (UniProt Q8NGY0)
T4 sequence (whole entry): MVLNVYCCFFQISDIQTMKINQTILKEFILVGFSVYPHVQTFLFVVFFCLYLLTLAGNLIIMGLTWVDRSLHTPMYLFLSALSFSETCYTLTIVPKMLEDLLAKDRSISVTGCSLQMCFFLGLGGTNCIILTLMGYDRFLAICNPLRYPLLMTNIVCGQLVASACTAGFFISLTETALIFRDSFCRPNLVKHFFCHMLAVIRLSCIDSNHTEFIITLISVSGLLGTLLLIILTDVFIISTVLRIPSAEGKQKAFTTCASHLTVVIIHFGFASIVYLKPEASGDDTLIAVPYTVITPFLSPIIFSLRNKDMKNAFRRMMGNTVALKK
Summary of the method: as §1

OR10Z1 (Homo sapiens) = target: T5, OR10Z1 (Homo sapiens) (UniProt Q8NGY1)
T5 sequence (whole entry): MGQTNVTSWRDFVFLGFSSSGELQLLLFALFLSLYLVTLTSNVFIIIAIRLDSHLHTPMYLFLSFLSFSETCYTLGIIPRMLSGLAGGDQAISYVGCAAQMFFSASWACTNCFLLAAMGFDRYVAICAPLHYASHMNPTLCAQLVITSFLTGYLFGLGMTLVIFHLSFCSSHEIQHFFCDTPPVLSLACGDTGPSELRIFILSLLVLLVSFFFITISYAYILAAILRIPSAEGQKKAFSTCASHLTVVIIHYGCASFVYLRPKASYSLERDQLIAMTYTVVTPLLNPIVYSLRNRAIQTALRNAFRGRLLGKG
Summary of the method: as §1

OR11A1 (Homo sapiens) = target: T6, OR11A1 (Homo sapiens) (UniProt Q9GZK7)
T6 sequence (whole entry): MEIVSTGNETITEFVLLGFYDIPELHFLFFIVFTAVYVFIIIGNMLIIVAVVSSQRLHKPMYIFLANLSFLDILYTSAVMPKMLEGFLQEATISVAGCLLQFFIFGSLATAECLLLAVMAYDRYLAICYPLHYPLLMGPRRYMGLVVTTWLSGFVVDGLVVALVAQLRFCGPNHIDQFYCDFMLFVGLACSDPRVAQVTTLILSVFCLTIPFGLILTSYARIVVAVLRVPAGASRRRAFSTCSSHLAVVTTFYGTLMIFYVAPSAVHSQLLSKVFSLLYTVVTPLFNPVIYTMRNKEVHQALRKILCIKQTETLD
Summary of the method: as §1

OR11H4 (Homo sapiens) = target: T7, OR11H4 (Homo sapiens) (UniProt Q8NGC9)
T7 sequence (whole entry): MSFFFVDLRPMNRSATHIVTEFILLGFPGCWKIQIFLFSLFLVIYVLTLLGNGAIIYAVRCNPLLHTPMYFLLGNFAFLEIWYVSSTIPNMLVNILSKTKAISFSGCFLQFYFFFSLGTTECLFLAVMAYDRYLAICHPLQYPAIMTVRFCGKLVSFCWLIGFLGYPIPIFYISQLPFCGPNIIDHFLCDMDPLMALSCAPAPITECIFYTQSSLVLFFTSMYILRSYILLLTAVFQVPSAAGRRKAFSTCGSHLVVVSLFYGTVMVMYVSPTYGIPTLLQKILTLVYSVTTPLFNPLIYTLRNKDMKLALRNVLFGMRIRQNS
Summary of the method: as §1

OR11H6 (Homo sapiens) = target: T8, OR11H6 (Homo sapiens) (UniProt Q8NGC7)
T8 sequence (whole entry): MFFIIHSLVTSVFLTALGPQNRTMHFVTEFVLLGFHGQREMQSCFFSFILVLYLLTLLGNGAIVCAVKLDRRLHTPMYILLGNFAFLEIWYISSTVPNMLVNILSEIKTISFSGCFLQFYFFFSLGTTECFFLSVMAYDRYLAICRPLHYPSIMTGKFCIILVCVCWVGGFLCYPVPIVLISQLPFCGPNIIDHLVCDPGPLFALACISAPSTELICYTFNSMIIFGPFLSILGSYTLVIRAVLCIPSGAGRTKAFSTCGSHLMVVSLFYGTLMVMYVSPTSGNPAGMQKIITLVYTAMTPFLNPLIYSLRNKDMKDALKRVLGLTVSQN
Summary of the method: as §1

OR12D2 (Homo sapiens) = target: T9, OR12D2 (Homo sapiens) (UniProt P58182)
T9 sequence (whole entry): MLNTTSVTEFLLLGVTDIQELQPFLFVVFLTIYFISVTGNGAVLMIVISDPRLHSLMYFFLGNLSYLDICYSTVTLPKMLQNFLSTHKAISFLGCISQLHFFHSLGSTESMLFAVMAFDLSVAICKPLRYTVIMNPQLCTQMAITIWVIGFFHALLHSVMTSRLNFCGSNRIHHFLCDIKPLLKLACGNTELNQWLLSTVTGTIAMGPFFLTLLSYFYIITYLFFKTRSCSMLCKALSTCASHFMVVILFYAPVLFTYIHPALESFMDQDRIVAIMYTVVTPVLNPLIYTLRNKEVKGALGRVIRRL
Summary of the method: as §1

OR12D3 (Homo sapiens) = target: T10, OR12D3 (Homo sapiens) (UniProt Q9UGF7)
T10 sequence (whole entry): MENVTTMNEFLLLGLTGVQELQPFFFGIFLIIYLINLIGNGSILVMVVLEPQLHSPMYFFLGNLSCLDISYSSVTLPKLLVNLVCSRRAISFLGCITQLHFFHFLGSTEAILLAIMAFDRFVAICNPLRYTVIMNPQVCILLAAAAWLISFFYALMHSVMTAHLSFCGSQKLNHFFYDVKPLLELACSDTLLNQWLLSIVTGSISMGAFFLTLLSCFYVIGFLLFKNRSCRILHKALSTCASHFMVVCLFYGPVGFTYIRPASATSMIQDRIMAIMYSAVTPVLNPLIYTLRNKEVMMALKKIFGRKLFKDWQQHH
Summary of the method: as §1

OR13A1 (Homo sapiens) = target: T11, OR13A1 (Homo sapiens) (UniProt Q8NGR1)
T11 sequence (whole entry): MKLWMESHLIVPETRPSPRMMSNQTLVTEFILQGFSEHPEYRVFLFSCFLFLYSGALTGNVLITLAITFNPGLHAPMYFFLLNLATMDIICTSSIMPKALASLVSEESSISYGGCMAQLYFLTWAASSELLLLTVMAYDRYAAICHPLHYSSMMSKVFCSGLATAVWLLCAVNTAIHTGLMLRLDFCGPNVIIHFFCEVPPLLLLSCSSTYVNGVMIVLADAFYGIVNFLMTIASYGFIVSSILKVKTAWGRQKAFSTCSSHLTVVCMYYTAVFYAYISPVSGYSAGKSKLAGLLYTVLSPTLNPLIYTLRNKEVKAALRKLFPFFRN
Summary of the method: as §1

OR10S1 (Homo sapiens) = target: T12, OR10S1 (Homo sapiens) (UniProt Q8NGN2)
T12 sequence (whole entry): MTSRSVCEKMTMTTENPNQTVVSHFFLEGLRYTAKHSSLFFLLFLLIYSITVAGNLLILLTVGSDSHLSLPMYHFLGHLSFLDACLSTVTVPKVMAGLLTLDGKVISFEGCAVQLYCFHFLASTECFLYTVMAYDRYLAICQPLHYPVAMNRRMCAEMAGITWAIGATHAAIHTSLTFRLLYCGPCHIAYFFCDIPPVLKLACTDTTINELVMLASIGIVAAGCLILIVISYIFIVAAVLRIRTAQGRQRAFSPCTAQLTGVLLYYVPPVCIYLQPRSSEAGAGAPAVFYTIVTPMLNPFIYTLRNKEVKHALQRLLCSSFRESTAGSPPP
Summary of the method: as §1

OR11H12 (Homo sapiens) = OR11H12 (Homo sapiens) (UniProt B2RN74)
Summary of the method: as §1

SMILES | odorant receptor agonist call (OR10K1 (Homo sapiens)) | odorant receptor agonist call (OR10K2 (Homo sapiens)) | odorant receptor agonist call (OR10T2 (Homo sapiens)) | odorant receptor agonist call (OR10X1 (Homo sapiens)) | odorant receptor agonist call (OR10Z1 (Homo sapiens)) | odorant receptor agonist call (OR11A1 (Homo sapiens)) | odorant receptor agonist call (OR11H4 (Homo sapiens)) | odorant receptor agonist call (OR11H6 (Homo sapiens)) | odorant receptor agonist call (OR12D2 (Homo sapiens)) | odorant receptor agonist call (OR12D3 (Homo sapiens)) | odorant receptor agonist call (OR13A1 (Homo sapiens)) | odorant receptor agonist call (OR10S1 (Homo sapiens)) | odorant receptor agonist call (OR11H12 (Homo sapiens))
CC=Cc1ccc(O)c(OC)c1 | inactive | inactive | inactive | inactive | inactive | inactive | inactive | inactive | inactive | inactive | inactive | – | –
CCCCCCCC=CC=O | active | inactive | active | inactive | active | inactive | inactive | inactive | inactive | inactive | inactive | – | –
CC(C)(O)CCCC1=CCC(C=O)CC1 (stereo not given) | – | – | – | – | – | – | – | – | – | – | – | inactive | –
CC1COCc2cc3c(cc21)C(C)(C)C(C)C3(C)C (stereo not given) | inactive | active | inactive | active | inactive | active | active | active | active | active | active | – | –
O=CCc1ccccc1 | inactive | inactive | inactive | inactive | inactive | inactive | inactive | inactive | inactive | inactive | inactive | – | –
CC(=O)C(C)=O | inactive | inactive | inactive | inactive | inactive | inactive | inactive | inactive | inactive | inactive | inactive | – | –
CC1=NC(C)SC1C (stereo not given) | inactive | inactive | inactive | inactive | inactive | inactive | inactive | inactive | inactive | inactive | inactive | – | –
C=C(C)C1CC=C(C)C(=O)C1 (stereo not given) | – | – | – | – | – | – | – | – | – | – | – | inactive | active
CC(C)C=O | inactive | inactive | inactive | inactive | inactive | inactive | inactive | inactive | inactive | inactive | inactive | – | –
CCCCCCCCOC(C)=O | inactive | inactive | inactive | inactive | inactive | inactive | inactive | inactive | inactive | inactive | inactive | – | –
COC(=O)c1ccccc1O | inactive | inactive | inactive | inactive | inactive | inactive | inactive | inactive | inactive | inactive | inactive | – | –
CCC=CCCO | inactive | inactive | inactive | inactive | inactive | inactive | inactive | inactive | inactive | inactive | inactive | – | –
CCCCCOC(C)=O | active | inactive | inactive | inactive | inactive | inactive | inactive | inactive | inactive | inactive | inactive | – | –
CC(=O)OCC=C(C)CCC=C(C)C | inactive | inactive | inactive | inactive | inactive | inactive | inactive | inactive | inactive | inactive | inactive | – | –

Taken from above.
Entry for CC(=O)OCC=C(C)CCC=C(C)C under odorant receptor agonist call (OR12D3 (Homo sapiens)): inactive
Entry for CC(=O)C(C)=O under odorant receptor agonist call (OR11A1 (Homo sapiens)): inactive
